Data published in patent EP2364976B1, “S1P receptor modulating compounds and use thereof” (EPIX Pharmaceuticals, Inc., priority 2007, dated 2007).
For at least one compound, name, drawing or mass did not settle the structure.

By UniProt entry, the sequences of proteins in these tests, tags left out. Where a name states a change or a piece, a line headed by the entry shows the natural chain unless it says otherwise.
UniProt Q99500: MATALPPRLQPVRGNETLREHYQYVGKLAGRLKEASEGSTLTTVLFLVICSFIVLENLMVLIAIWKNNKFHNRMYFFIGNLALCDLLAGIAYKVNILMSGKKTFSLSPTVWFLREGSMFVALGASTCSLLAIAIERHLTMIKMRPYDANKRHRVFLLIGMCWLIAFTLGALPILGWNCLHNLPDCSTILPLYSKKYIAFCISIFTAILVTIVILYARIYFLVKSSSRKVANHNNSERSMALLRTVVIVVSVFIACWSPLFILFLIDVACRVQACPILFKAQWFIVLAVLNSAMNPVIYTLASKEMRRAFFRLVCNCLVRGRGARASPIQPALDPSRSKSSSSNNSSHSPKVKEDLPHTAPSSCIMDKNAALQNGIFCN

Biological target: T1, hS1P3 (Homo sapiens, UniProt Q99500)
T1 construct: expressed in transfected cells
Assay: hS1P1:hS1P3 EC50 selectivity (S1P receptor Ca2+ flux protocol)
Assay type: cell-based
Details: better than 1:100 (in favour of hS1P1)

## O=C(O)C(F)(F)F.O=C(O)C1CN(Cc2ccc(-c3cn4ccc(Cc5ccccc5)cc4n3)c(F)c2)C1
  hS1P1:hS1P3 EC50 selectivity ratios: > 1:100
